These are yes or no findings as the source states them, for the method shown. In cells and extracts the contact can be indirect. Some entries that bind do so weakly or less than the wild type. For some assays here: Tags and fused reporters may be left off the sequences shown.
How the values were obtained:
[1] = target: T1, F-box and WD repeat domain-containing protein 2 (FBXW2) (human (endogenous in GC cells)) (UniProt Q9UKT8); experiment: co-IP; endogenous FBXW2 and WASL in GC cells; which protein was precipitated is not told
T1 sequence: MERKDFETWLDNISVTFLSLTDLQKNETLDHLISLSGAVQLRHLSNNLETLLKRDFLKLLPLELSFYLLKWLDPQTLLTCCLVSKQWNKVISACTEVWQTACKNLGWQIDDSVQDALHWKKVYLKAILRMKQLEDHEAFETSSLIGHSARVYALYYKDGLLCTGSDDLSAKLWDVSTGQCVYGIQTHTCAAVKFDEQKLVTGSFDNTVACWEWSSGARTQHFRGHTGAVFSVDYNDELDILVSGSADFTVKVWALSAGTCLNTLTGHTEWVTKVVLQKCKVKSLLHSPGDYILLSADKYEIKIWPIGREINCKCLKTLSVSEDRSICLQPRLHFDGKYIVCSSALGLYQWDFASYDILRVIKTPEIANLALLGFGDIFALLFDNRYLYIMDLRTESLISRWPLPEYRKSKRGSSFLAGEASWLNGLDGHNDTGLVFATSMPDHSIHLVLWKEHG

Chains of the proteins cited; added tags and fusions are not shown.
UniProt O00401: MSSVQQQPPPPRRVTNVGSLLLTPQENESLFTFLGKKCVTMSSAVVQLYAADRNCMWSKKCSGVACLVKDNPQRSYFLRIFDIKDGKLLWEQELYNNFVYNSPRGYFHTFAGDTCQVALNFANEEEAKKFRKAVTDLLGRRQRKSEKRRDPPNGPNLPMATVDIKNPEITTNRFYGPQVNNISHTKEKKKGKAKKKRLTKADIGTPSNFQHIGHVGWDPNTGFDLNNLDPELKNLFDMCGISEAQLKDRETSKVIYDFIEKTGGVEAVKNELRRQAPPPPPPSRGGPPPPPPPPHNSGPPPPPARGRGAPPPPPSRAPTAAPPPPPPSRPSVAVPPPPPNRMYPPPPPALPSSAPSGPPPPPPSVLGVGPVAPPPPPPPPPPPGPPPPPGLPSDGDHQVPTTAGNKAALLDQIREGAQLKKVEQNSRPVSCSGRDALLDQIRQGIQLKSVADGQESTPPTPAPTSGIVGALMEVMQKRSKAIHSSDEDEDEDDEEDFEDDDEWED

Flag-tagged FBXW2 = target: T2, Flag-tagged FBXW2 (UniProt Q9UKT8); experiment: co-IP; Flag-tagged FBXW2 and Myc-tagged WASL transfected into HEK293T cells; Co-IP and immunoblot with the indicated antibodies
T2 sequence: T1 sequence

Substance | binding [1] | binding (Flag-tagged FBXW2)
WASP-like actin nucleation-promoting factor (WASL) (from UniProt O00401 1-505) | binds | 
Myc-tagged WASL (from UniProt O00401 1-505) |  | binds
